These are literature values, as cited in patent EP0147926B1, “Oral anti-cancer compositions” (priority 1983, dated 1985).

Like-named read-outs stand apart in the source and are kept apart here.

This data set relates to ADJ/PC6A plasmacytoma.

`N.N.O=C([O-])C1(C(=O)[O-])CCC1.[Pt+2]` [cis-[diammine-(1,1-cyclobutanedicarboxylato)platinum(II)l]: the therapeutic index (administered orally) is recorded as 2.4 and the therapeutic index (administered parenterally) is 12.4.
